Laboratory results from paper PMC13404287.
No constants are given. Whether binding was seen depends on the method and setting. Binding seen in cells or lysates may run through a third protein. Some binding calls cover weakened binding; strength is not graded here. Sequences can lack the tags named with a protein.

Molecular target: T1, Flt3-Flag (murine FLT3) (mouse) (UniProt Q00342)
T1 sequence: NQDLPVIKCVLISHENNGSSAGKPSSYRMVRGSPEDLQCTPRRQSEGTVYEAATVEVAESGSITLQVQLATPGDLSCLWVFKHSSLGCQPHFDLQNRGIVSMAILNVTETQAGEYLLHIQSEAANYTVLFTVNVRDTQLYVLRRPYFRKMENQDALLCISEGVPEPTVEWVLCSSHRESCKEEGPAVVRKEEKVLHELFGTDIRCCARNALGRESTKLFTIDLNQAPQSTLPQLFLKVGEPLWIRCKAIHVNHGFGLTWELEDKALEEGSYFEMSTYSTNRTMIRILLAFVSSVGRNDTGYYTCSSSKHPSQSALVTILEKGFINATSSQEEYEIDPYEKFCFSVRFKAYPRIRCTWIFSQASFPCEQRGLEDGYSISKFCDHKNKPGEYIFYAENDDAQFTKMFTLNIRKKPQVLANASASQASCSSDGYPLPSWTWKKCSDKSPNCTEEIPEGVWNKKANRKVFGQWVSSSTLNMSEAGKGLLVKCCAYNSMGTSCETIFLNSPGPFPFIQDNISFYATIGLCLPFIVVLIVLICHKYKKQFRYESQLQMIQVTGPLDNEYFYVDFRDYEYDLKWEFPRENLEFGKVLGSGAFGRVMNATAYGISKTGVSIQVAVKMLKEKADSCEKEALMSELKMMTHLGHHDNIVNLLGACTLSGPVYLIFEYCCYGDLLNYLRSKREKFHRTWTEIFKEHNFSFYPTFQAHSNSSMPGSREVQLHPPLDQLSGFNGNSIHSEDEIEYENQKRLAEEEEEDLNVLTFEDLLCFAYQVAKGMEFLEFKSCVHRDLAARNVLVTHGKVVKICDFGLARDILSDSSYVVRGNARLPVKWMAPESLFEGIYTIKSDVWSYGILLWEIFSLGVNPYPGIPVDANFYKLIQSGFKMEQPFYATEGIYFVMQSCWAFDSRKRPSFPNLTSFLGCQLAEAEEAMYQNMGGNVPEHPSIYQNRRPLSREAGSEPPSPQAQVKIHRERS
Assay: co-IP; 293T cells co-expressing Flt3-Flag, Stat6-HA and Il4ra-Myc for 24 h; lysed in IP lysis buffer; Anti-Flag Magnetic Beads at 4 °C overnight; five washes; immunoblot

binding: binds
B1: Il4ra-Myc (IL-4Rα) (receptor, UniProt P16382 26-810)
chain: IKVLGEPTCFSDYIRTSTCEWFLDSAVDCSSQLCLHYRLMFFEFSENLTCIPRNSASTVCVCHMEMNRPVQSDRYQMELWAEHRQLWQGSFSPSGNVKPLAPDNLTLHTNVSDEWLLTWNNLYPSNNLLYKDLISMVNISREDNPAEFIVYNVTYKEPRLSFPINILMSGVYYTARVRVRSQILTGTWSEWSPSITWYNHFQLPLIQRLPLGVTISCLCIPLFCLFCYFSITKIKKIWWDQIPTPARSPLVAIIIQDAQVPLWDKQTRSQESTKYPHWKTCLDKLLPCLLKHRVKKKTDFPKAAPTKSLQSPGKAGWCPMEVSRTVLWPENVSVSVVRCMELFEAPVQNVEEEEDEIVKEDLSMSPENSGGCGFQESQADIMARLTENLFSDLLEAENGGLGQSALAESCSPLPSGSGQASVSWACLPMGPSEEATCQVTEQPSHPGPLSGSPAQSAPTLACTQVPLVLADNPAYRSFSDCCSPAPNPGELAPEQQQADHLEEEEPPSPADPHSSGPPMQPVESWEQILHMSVLQHGAAAGSTPAPAGGYQEFVQAVKQGAAQDPGVPGVRPSGDPGYKAFSSLLSSNGIRGDTAAAGTDDGHGGYKPFQNPVPNQSPSSVPLFTFGLDTELSPSPLNSDPPKSPPECLGLELGLKGGDWVKAPPPADQVPKPFGDDLGFGIVYSSLTCHLCGHLKQHHSQEEGGQSPIVASPGCGCCYDDRSPSLGSLSGALESCPEGIPPEANLMSAPKTPSNLSGEGKGPGHSPVPSQTTEVPVGALGIAVS
